From PubChem BioAssay AID1487 (National Center for Advancing Translational Sciences (NCATS), 2009) come the findings set out here.

Some of the results follow. The main result of the screen is listed elsewhere. These columns were measured beside it and carry no call. Compounds called inactive in the main read-out are mostly missing here. Potencies come from curve fits of mixed quality, noted in brackets.

This assay can be described thus: qHTS Assay for Modulators of Lamin A Splicing. The note with it: HeLa LMNA splicing GFP/RFP minigene ratio, 48 h. An outline of the steps: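 Read-out is the ratio of GFP to DsRed2 object intensity, acquired by 488 nm laser-scanning cytometry on HeLa lamin A-EGFP minigene reporter cells. Compound incubation 48 hrs at 37 °C in Opti-MEM with 2% FBS; DMSO 0.5% final.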

The mark [1] stands for this setting: measured here: GFP splicing reporter channel.
The mark [2] stands for this setting: measured here: RFP viability control channel.

In the case of `CCOC(=O)c1c(NC(NC(C)=O)C(Cl)(Cl)Cl)sc2c1CCCC2` (stereo not given), the AC50 under setting [1] was 35.5 µM [falling, partial curve, poor fit] and the AC50 under setting [2] was 25.1 µM [falling, partial curve, poor fit].
For the compound `O=C(c1ccccc1NS(=O)(=O)c1ccc(Cl)cc1)N1CCc2ccccc21`, the AC50 under setting [2] was 35.5 µM [rising, single point].
On to `CCn1c(C(=O)N2CCC(C(=O)N3CCN(c4ccccn4)CC3)CC2)cc2sccc21`, for which the AC50 under setting [2] was 10 µM [rising, partial curve].
For the compound `CC1CN(c2ccc(NS(=O)(=O)c3ccccc3)cc2C(=O)O)CC(C)O1` (stereo not given), the AC50 under setting [2] was 10 µM [falling, single point].
On to `COC(=O)c1ccccc1NC(=O)c1cnc2sc(N3CCOCC3)nn2c1=O`, for which the concentration at half-maximal activity (AC50) under setting [1] is 6.31 µM [falling, partial curve, poor fit] and the AC50 under setting [2] was 5.62 µM [falling, partial curve, poor fit].
For `O=CN1CCN(c2ncnc3c2nnn3Cc2c(F)cccc2Cl)CC1`, the AC50 by setting is: under setting [1], 2 µM [rising, partial curve, poor fit]; under setting [2], 2.51 µM [rising, full curve, poor fit].
For `CCN(Cc1cc(OC)c(OC)c(OC)c1)C(=S)Nc1cccc(SC)c1`, the AC50 under setting [1] is 3.16 µM [rising, partial curve, poor fit].
As for `N/C(=N\OC(=O)c1ccc(Cl)cc1)c1ccccn1`, the AC50 under setting [1] is 35.5 µM [falling, single point] and the AC50 under setting [2] is 22.4 µM [falling, partial curve].
Turning to `CCn1c2ccccc2c2cc(NC(=O)CSc3nnc(C4CC4)n3Cc3ccco3)ccc21`, the AC50 runs as follows: under setting [1], 12.6 µM [rising, partial curve, poor fit]; under setting [2], 17.8 µM [rising, partial curve, poor fit].
With `CCC(C)NC(=O)Cc1ccc(NC(=O)N2CCCCc3ccccc32)cc1` (stereo not given), under setting [2], the AC50 was 0.00316 µM [falling, full curve, poor fit].
With `CCCCCOc1ccc(N2C(=O)C3C4C=CC(C3C2=O)N(C)C4=O)cc1` (stereo not given), the AC50 under setting [2] is 15.8 µM [rising, single point].
On to `S=C(Nc1cccc(Br)c1)c1ccccc1`, for which the AC50 under setting [2] was 10 µM [rising, partial curve, poor fit].
`O=C(CS(=O)(=O)c1cccc2nsnc12)Nc1ccc(F)cc1F`: the AC50 was 10 µM [falling, partial curve, poor fit] under setting [1] and 7.08 µM [falling, full curve] under setting [2].
As to `Cc1ccc(S(=O)(=O)N2CCCOC2CNC(=O)C(=O)NCCc2c[nH]c3ccccc23)cc1` (stereo not given), the AC50 under setting [1] is 11.2 µM [rising, partial curve] and the AC50 under setting [2] is 15.8 µM [rising, partial curve].
For the compound `O=C(Cn1ncc2c1-c1ccccc1OC2)N1CCN(c2ccccn2)CC1`, the AC50 under setting [1] was 35.5 µM [rising, single point].
Take `COc1ccc(N=c2cc(-c3ccc(OC)cc3)oc3ccccc23)cc1`: the AC50 is, setting by setting: under setting [1], 31.6 µM [rising, single point]; under setting [2], 35.5 µM [rising, single point].
`CC(=O)N1CCOc2cc(S(=O)(=O)Nc3c(C)cccc3C(C)C)c(Cl)cc21`: the concentration at half-maximal activity (AC50) under setting [2] is 0.1 µM [falling, full curve].
As to `CCOC(=O)N1CCC(N(CCN(C)C)C(=S)Nc2ccc(F)c(Cl)c2)CC1`, the AC50 under setting [1] was 7.94 µM [falling, partial curve, poor fit] and the AC50 under setting [2] was 12.6 µM [falling, partial curve, poor fit].
As to `CCOC(=O)c1c(-c2ccc(OC)cc2)csc1NC(=O)COc1ccc2c(C)cc(=O)oc2c1`, under setting [1], the AC50 was 0.251 µM [falling, partial curve].
As to `O=C(c1ccc(-c2ccccc2)c(F)c1)C1CCCN(C(=O)c2cncs2)C1` (stereo not given), the AC50 under setting [2] is 12.6 µM [falling, partial curve, poor fit].
With `O=[N+]([O-])/C(N=Nc1ccccc1)=N\Nc1ccccc1`, the AC50 under setting [1] was 14.1 µM [rising, partial curve] and the AC50 under setting [2] is 31.6 µM [rising, single point].
Regarding `CC(C)c1ccc(S(=O)(=O)c2n[nH]n3c2nc(=O)c2ccccc23)cc1`, the AC50 under setting [2] was 22.4 µM [rising, single point].
Take `Cc1ccc2oc(=O)n(CCOc3ccccc3C)c2c1`: the AC50 reads like this: under setting [1], 0.0501 µM [rising, full curve, poor fit]; under setting [2], 0.0141 µM [rising, full curve, poor fit].
As to `Cc1cccc(Sc2ccc([N+](=O)[O-])cc2[N+](=O)[O-])n1`, the half-maximal activity concentration (AC50) under setting [1] is 15.8 µM [rising, single point] and the AC50 under setting [2] was 17.8 µM [rising, single point].
On to `COc1ccc(OCC(O)Cn2cnc(-c3ccc(Br)cc3)c2)cc1` (stereo not given), for which the AC50 under setting [1] was 12.6 µM [rising, single point] and the AC50 under setting [2] is 31.6 µM [rising, single point].
As to `COCCCN=C1NN=C(c2cc(C)n(-c3ccccc3)c2C)CS1`, the AC50 under setting [2] was 0.0562 µM [falling, partial curve, poor fit].
Take `CC1(C)Cc2c(ccc3ccccc23)/C(=C/C#N)N1`: the AC50 is, setting by setting: under setting [1], 20 µM [rising, single point]; under setting [2], 25.1 µM [rising, single point].
Regarding `O=C(Cc1ccc(-n2cccc2)cc1)N1CCN(c2ccccc2F)CC1`, the AC50 under setting [1] is 10 µM [rising, partial curve] and the AC50 under setting [2] is 10 µM [rising, partial curve].
`COc1cc(/C=N/NC(=O)CCN2CCCCC2)ccc1O`: the AC50 reads like this: under setting [1], 0.0794 µM [falling, full curve, poor fit]; under setting [2], 0.02 µM [falling, full curve, poor fit].
`COc1ccc(-c2cc(OC)c3c(C)oc(C)c3c(=O)c2)cc1OC`: under setting [2], the AC50 was 0.0891 µM [rising, full curve, poor fit].
Turning to `O=C(c1cccc(F)c1)N1CCN(c2ccc([N+](=O)[O-])c3cccnc23)CC1`, the AC50 under setting [1] is 6.31 µM [falling, single point].
`COC(=O)c1ccccc1NC(=O)COC(=O)c1ccccc1N=Nc1ccc(N(C)C)cc1`: the AC50 under setting [2] is 12.6 µM [rising, single point].
As to `COC(=O)c1cc2ccsc2n1Cc1nc(-c2ccc(OC)cc2)oc1C`, the AC50 under setting [2] was 25.1 µM [rising, single point].
For the compound `CCN(CC)S(=O)(=O)c1ccc(NC(=O)C2c3ccccc3Oc3ccccc32)cc1`, the AC50 under setting [2] is 0.316 µM [rising, full curve, poor fit].
Regarding `CN(C)c1ccc(N=Cc2nc(-c3ccccc3)oc2O)cc1`, the AC50 is 28.2 µM [falling, single point] under setting [1] and 12.6 µM [falling, single point] under setting [2].
As to `CN(C(=O)CSc1nc2c(c(=O)[nH]1)CCC2)c1ccccc1`, the AC50 under setting [2] was 12.6 µM [rising, single point].
Turning to `O=C(CCc1ccccc1)NC(=S)Nc1ccc2c(c1)C(=O)OC2`, the AC50 under setting [1] was 0.00891 µM [falling, full curve, poor fit].
Consider `COc1ccc(-n2c(N)c(C(=O)NCc3ccco3)c3nc4ccccc4nc32)cc1`, for which, under setting [2], the AC50 is 4.47 µM [rising, full curve, poor fit].
As to `Cc1ccc(-n2c(C)cc(/C=N/NC(=O)CN(c3ccc(C)cc3C)S(C)(=O)=O)c2C)cc1`, the half-maximal activity concentration (AC50) runs as follows: under setting [1], 15.8 µM [rising, partial curve, poor fit]; under setting [2], 2.51 µM [rising, partial curve].
Take `CCN(CCn1cccn1)C(=O)CCc1nnc(CCc2ccccc2OC)o1`: the AC50 under setting [2] was 0.0126 µM [falling, full curve, poor fit].
Take `CCCCn1c(SCc2nc3ccccc3s2)nc2cc(S(N)(=O)=O)ccc21`: the AC50 under setting [2] was 31.6 µM [rising, single point].
Take `Cc1c(-c2ccccc2)nc2ccccc2c1C(=O)OCC(=O)Nc1ncc(C(F)(F)F)cc1Cl`: the AC50 under setting [1] is 17.8 µM [rising, single point].
Regarding `COc1ccccc1CNS(=O)(=O)c1ccc2c(c1)CC(C)N2C(=O)C1CCC1` (stereo not given), the AC50 runs as follows: under setting [1], 0.1 µM [falling, full curve, poor fit]; under setting [2], 3.55 µM [falling, full curve].
Regarding `COc1ccc(C2CC(c3ccc4ccccc4c3)=NN2C(=O)CSc2ncccn2)cc1` (stereo not given), the AC50 under setting [2] is 14.1 µM [rising, partial curve, poor fit].
Consider `C=CCNC(=O)C1CCN(c2ccc(S(=O)(=O)N3CCOCC3)cc2Cl)CC1`, for which the AC50 is 7.08 µM [falling, partial curve, poor fit] under setting [1] and 12.6 µM [falling, partial curve, poor fit] under setting [2].
As to `CCOC(=O)c1ccc(Nc2nnc(C(C)(C)C)c(=O)[nH]2)cc1`, the AC50 under setting [2] was 35.5 µM [rising, single point].
Take `CN(C)CCNS(=O)(=O)c1ccc(N2CCN(c3ccc(F)cc3)CC2)c([N+](=O)[O-])c1`: the AC50 by setting is: under setting [1], 25.1 µM [rising, single point]; under setting [2], 25.1 µM [rising, single point].
For the compound `Cc1cccc(C)c1OCc1nnc(SCC(=O)Nc2nccs2)n1-c1ccccc1`, the AC50 was 3.98 µM [rising, single point] under setting [1] and 4.47 µM [rising, full curve, poor fit] under setting [2].
Consider `CC[C@H](C)[C@H](NC(=O)c1ccc(Cl)cc1)C(=O)OCC(=O)c1ccc2c(c1)NC(=O)CO2`, for which the AC50 is 35.5 µM [falling, single point] under setting [1] and 28.2 µM [falling, single point] under setting [2].
With `CC1CCN(S(=O)(=O)c2ccc(Cl)cc2Br)CC1`, under setting [2], the concentration at half-maximal activity (AC50) was 35.5 µM [rising, single point].
For `Cc1ccc(NC(=O)Nc2cccc([N+](=O)[O-])c2)cc1F`, the AC50 was 17.8 µM [rising, partial curve] under setting [1] and 20 µM [rising, partial curve] under setting [2].
